Test results: PubChem BioAssay AID1347076 (National Center for Advancing Translational Sciences (NCATS), 2019)
Hit rate of the full screen: of about 400,000 compounds, about 13,000 (3.2%) were called active. The shares of active, inactive and inconclusive entries below differ from those in the screen. The call rests on the fitted dose curve; in most records, active means well fitted cell-killing curve with a large enough effect; inconclusive means small, poorly fitted or top-dose-only effect, or effect the other way; inactive means flat fitted curve, though single readings scatter. Potencies beside an inconclusive call are fits to weak or partial responses and may not hold up.

test: qHTS assay for MDR1-selective chemotherapeutics: Primary screen using the drug-selected MDR subline cells KB-V1; details: KB-V1 MDR cells viability, CellTiter-Glo, 72 h; activity change, negative = cytotoxicity: at 46.1 µM (top of the series); further: nearly all actives have a fitted effect of over 60% in size
How it was run: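 Luminescent ATP read-out (CellTiter-Glo, 10 min) measures survival of drug-selected KB-V1 MDR cells after 72 h, 37 degrees C compound exposure. Medium: phenol-red-free DMEM, 10% FBS. Values from fitted concentration-response curves.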
On the % scale 0 is the no-effect control and ±100 the full control effect; potency means the concentration at half of the fitted maximal effect.

| SMILES | Potency | activity change, negative = cytotoxicity |
| --- | --- | --- |
| O=C(CN1CCN(S(=O)(=O)c2ccc(F)cc2)CC1)Nc1ccc(Cl)c(C(F)(F)F)c1 | active: 16.4 µM | – |
| Cc1cc(Br)c(NC(=O)CN2C(=O)NC3(CCOc4ccccc43)C2=O)c(Br)c1 (stereo not given) | inactive | – |
| Cc1cc(C)c(CN2C(=O)c3ccccc3S(=O)(=O)c3ccc(C(=O)OCC4CCCO4)cc32)c(C)c1 (stereo not given) | inactive | – |
| CC1CC(C)CN(c2nc3c(c(=O)[nH]c(=O)n3C)n2CCCSc2nc3ccccc3s2)C1 (stereo not given) | active: 4.11 µM | – |
| N#CC(=Cc1ccc(O)c(O)c1)C(=O)NCc1ccccc1 | inactive | – |
| Cc1ccc(CNC(=O)c2c(-c3ccccc3)sc3ccccc23)o1 | inactive | – |
| COc1ccc(C(=O)Nc2ccc3ccccc3c2)c(OC)c1 | active: 18.4 µM | – |
| COc1cccc(CNC(=O)CSc2ccc(-c3ccco3)nn2)c1 | inconclusive: 23.1 µM [cytotoxic, single point] | – |
| COc1ccc(C(=O)Nc2nc3n(n2)C(c2ccc(F)cc2)C=C(c2ccc(Cl)cc2)N3)cc1 (stereo not given) | inactive | – |
| COc1ccc(N2CCN(C(=O)CSc3nc4nc(C)cc(C)n4n3)CC2)cc1 | active: 20.6 µM | – |
| COc1ccc(C(=O)Nn2c(C)nc3ccccc3c2=O)cc1Br | inconclusive: 29.1 µM [rising, single point] | – |
| Cc1cnc(C(=O)OCC(=O)N(Cc2ccccc2)C(C)C)cn1 | inconclusive: 23.1 µM [rising, single point] | – |
| CCOC(=O)c1ccc(NC(=O)c2cc3c([nH]c2=O)CC(c2ccccc2)CC3=O)cc1 (stereo not given) | inactive | – |
| Cc1ccc(NC(=O)COC(=O)c2ccc(NC(=O)CC#N)cc2)cc1S(=O)(=O)N1CCOCC1 | inactive | – |
| Cc1cc(Nc2ccccc2)nc2cc(O)ccc12 | inconclusive: 23.1 µM [cytotoxic, partial curve, poor fit] | – |
| O=C(c1ccc(Cn2c(=S)[nH]c3ccccc3c2=O)cc1)N1CCN(c2ccccn2)CC1 | inconclusive: 29.1 µM [cytotoxic, single point] | – |
| CN(Cc1ccccc1)c1nc2c(c(=O)[nH]c(=O)n2C)n1Cc1ccccc1Cl | inconclusive: 8.2 µM [cytotoxic, partial curve] | – |
| COc1ccc(OC)c(NC(=O)C2CC(=O)N(CCc3ccccc3)C2)c1 (stereo not given) | inconclusive: 7.31 µM [cytotoxic, partial curve, poor fit] | – |
| C=CCSc1nc(N(CC)CC)c2sccc2n1 | inconclusive: 18.4 µM [cytotoxic, single point] | – |
| N#CCCn1cc(C=C(C#N)C#N)c(-c2ccc(-c3ccccc3)cc2)n1 | active: 20.6 µM | – |
| COc1ccc(NC(=O)C2CC3C=CC2C3)c([N+](=O)[O-])c1 (stereo not given) | active: 20.6 µM | – |
| N/C(Cc1ccc(Cl)cc1Cl)=N\OC(=O)Cc1cccs1 | – | inconclusive: 34.2% |
| Cc1ccc(OCC(=O)NC(=S)Nc2ccc(Br)cn2)cc1C | inactive | – |
| Cc1ccc2cc(-c3noc(C(C)(C)C)n3)c(=O)[nH]c2c1 | active: 18.4 µM | – |
| Cc1cccc(NC(=S)N/N=C/c2cccc(O)c2)c1C | active: 6.51 µM | – |

Another view of 3 compounds above.
SMILES | Potency | activity change, negative = cytotoxicity
COc1ccc(OC)c(NC(=O)C2CC(=O)N(CCc3ccccc3)C2)c1 (stereo not given) | inconclusive: 7.31 µM [cytotoxic, partial curve, poor fit] | –
C=CCSc1nc(N(CC)CC)c2sccc2n1 | inconclusive: 18.4 µM [cytotoxic, single point] | –
N#CCCn1cc(C=C(C#N)C#N)c(-c2ccc(-c3ccccc3)cc2)n1 | active: 20.6 µM | –

Continued:

| SMILES | Potency | activity change, negative = cytotoxicity |
| --- | --- | --- |
| COc1ccc(-n2cc(-c3ccc4c(c3)OCO4)n(CC(=O)Nc3cccc(C)c3)c2=O)cc1 | inactive | – |
| CCCn1c2ccccc2c2nnc(SC(CC)C(=O)Nc3cc(C)on3)nc21 (stereo not given) | inactive | – |
| CCOC(=O)C1=CCN(S(=O)(=O)c2ccc(C)cc2)C1c1cccc(C)c1 (stereo not given) | inconclusive: 20.6 µM [cytotoxic, single point] | – |
| C#CCNC(=O)c1cc2sccc2n1C | inactive | – |
| Cc1cc(C)n(C(C)CC(=O)Nc2ccc(C)c(F)c2)n1 (stereo not given) | inactive | – |
| CC(C)c1cc(C(N)=O)c(NC(=O)c2cccc(COc3ccc(Cl)cc3)c2)s1 | inconclusive: 32.6 µM [cytotoxic, single point] | – |
| CC(=O)c1ccc(N2CCN(C(=S)Nc3cc(C)ccn3)CC2)cc1 | inactive | – |
| CCn1c(SCC(=O)OC)nnc1-c1ccc(C)cc1 | inconclusive: 29.1 µM [rising, single point] | – |
| COc1cccc(COc2ccc(N(C)S(=O)(=O)c3ccccc3)cc2)c1 | inconclusive: 25.9 µM [cytotoxic, single point] | – |
| O=S(=O)(c1ccc(Cl)cc1)N1CCC2(CC1)OCCN2S(=O)(=O)c1cccs1 | inconclusive: 16.4 µM [cytotoxic, partial curve] | – |
| Cc1ccc(NC(=O)Cn2cccc2)cc1Cl | active: 18.4 µM | – |
| CN(C)S(=O)(=O)c1ccc(C(=O)N2CCN(S(=O)(=O)c3cccs3)CC2)cc1 | inactive | – |
| COc1ccc(O)c(CN2CCN(C/C=C/c3ccccc3)CC2)c1 | active: 14.6 µM | – |
| CCOc1ccc(NC(=O)CN2CCSc3ccc(S(=O)(=O)N4CCCC4)cc32)cc1 | active: 10.3 µM | – |
| Cc1cc2ccc(Cl)nc2nc1C | inconclusive: 29.1 µM [rising, single point] | – |
| O=C(COC(=O)CCCc1nc2ccccc2s1)Nc1ncc(Cl)cc1Cl | inactive | – |
| COc1cc(OC)c2c(c1C(CCN1CCOCC1)c1ccc(N(C)C)cc1)OC(=O)CC2c1ccc(N(C)C)cc1 (stereo not given) | inactive | – |
| COc1ccc(-c2cc(C(=O)Nc3cc(S(N)(=O)=O)ccc3C)c3ccccc3n2)cc1OC | inactive | – |
| O=C(NN=C1CCCC1)c1ccc([N+](=O)[O-])cc1 | inconclusive: 20.6 µM [rising, single point] | – |
| Clc1cccc(Cl)c1COc1ccccc1CNn1cnnc1 | inconclusive: 3.66 µM [cytotoxic, single point] | – |
| Cc1ccc2c(c1)C(=O)N1[C@H]3c4cc(C)ccc4OC[C@@H]3[C@H](c3ccccc3)[C@]1(C)C(=O)N2 | inconclusive: 29.1 µM [cytotoxic, single point] | – |
| Cc1csc(N(C(=O)c2cccc(S(=O)(=O)N3CCCC3)c2)c2ccccc2)n1 | inconclusive: 32.6 µM [cytotoxic, single point] | – |
| CN1CCN(C(=O)CCN2C(=O)c3ccccc3C2=O)CC1 | inconclusive: 16.4 µM [rising, single point] | – |
| CN(Cc1nc(C(c2ccccc2)c2ccccc2)no1)CC1COCCO1 (stereo not given) | inconclusive: 18.4 µM [cytotoxic, single point] | – |
| COc1cc(C(=S)N2CCCC2)ccc1OCC(N)=O | inconclusive: 7.31 µM [rising, single point] | – |

| SMILES | Potency | activity change, negative = cytotoxicity |
| --- | --- | --- |
| Cc1ccc(S(=O)(=O)Nc2ccccc2C(=O)OC(C)C(=O)Nc2ccc3ccccc3c2)cc1[N+](=O)[O-] (stereo not given) | inconclusive: 9.2 µM [cytotoxic, partial curve] | – |
| CCCOc1ccc(CSC2=NCCN2)cc1[N+](=O)[O-] | inconclusive: 14.6 µM [rising, partial curve] | – |
| CCN(CC)CCCNC(=O)CN1C(=O)COc2ccc(S(=O)(=O)N3CCC(C)CC3)cc21 | inactive | – |
| CCc1cccc(NS(=O)(=O)c2cc(-c3cnc(C)o3)ccc2OC)c1 | inactive | – |
| Cc1ccccc1-n1c(=O)/c(=C\c2ccco2)s/c1=C(/C#N)C(=O)Nc1ccccc1 | inactive | – |
| CC(=O)Nc1ccc(C=Cc2ccc([N+](=O)[O-])cc2)cc1 | inactive | – |
| CCOC(=O)Cn1c(=O)n(CC2CCCO2)c2nc(-c3c(F)cccc3Cl)nc(C(N)=O)c21 (stereo not given) | inconclusive: 13 µM [cytotoxic, partial curve] | – |
| C=C(C)c1cccc(C(C)(C)NC(=O)N2CCN(C)CC2)c1 | inactive | – |
| COc1cccc(Cn2c(NCc3ccco3)nc3c2c(=O)n(C)c(=O)n3C)c1 | inconclusive: 20.6 µM [cytotoxic, partial curve, poor fit] | – |
| Cc1cccc(/C=C2/S/C(=N/N=C3\CC4CCC3(C)C4(C)C)NC2=O)c1 (stereo not given) | active: 20.6 µM | – |
| CN1CCC(NC(=O)C2(C)CCN2Cc2ccc3ccccc3c2)CC1 (stereo not given) | inconclusive: 23.1 µM [cytotoxic, single point] | – |
| COc1ccccc1N1CCN(C(=O)/C=C/c2ccc(C)cc2)CC1 | active: 16.4 µM | – |
| N#C/C(=C/c1cccs1)c1nc2ccccc2[nH]1 | inconclusive: 29.1 µM [cytotoxic, single point] | – |
| CCCCc1cc(=O)oc2cc(C)cc(OCC(=O)N3C[C@H]4C[C@@H](C3)c3cccc(=O)n3C4)c12 | inactive | – |
| COc1ccc(CC(=O)Nc2cccc(-c3nnc(-c4ccco4)o3)c2)cc1 | inconclusive: 20.6 µM [cytotoxic, single point] | – |
| Cc1ccc(NC(=O)[C@@H](c2ccccc2)N2Cc3ccccc3C2=O)cc1F | inactive | – |
| Cc1ccc(-c2nn(-c3ccccc3)cc2/C=N/NC(=O)CSc2nnc(C)n2-c2ccccc2)cc1 | inconclusive: 29.1 µM [cytotoxic, single point] | – |
| O=C(CCCN1CCC(O)(c2ccc(Br)cc2)CC1)c1ccc(F)cc1 | inconclusive: 10.3 µM [cytotoxic, partial curve] | – |
| CCN(CC)c1ccc(NC(=O)c2cnc3ccccn3c2=O)c(C)c1 | active: 3.66 µM | – |
| O=c1cc(CN2CCCCCCC2)c2c(ccc3ccccc32)o1 | inactive | – |
| CCC1=NN(C(=O)Cc2ccc(OC)c(OC)c2)C(O)(C(F)(F)F)C1 (stereo not given) | active: 14.6 µM | – |
| CCCCCNC(=O)C(c1ccccc1)n1c(=O)c(-c2cc3ccccc3[nH]2)nc2ccccc21 (stereo not given) | inconclusive: 11.6 µM [cytotoxic, partial curve] | – |
| Clc1ccc(-c2cn3c(n2)-c2ccccc2C3)cc1Cl | active: 14.6 µM | – |
| COc1ccccc1-n1c(=O)oc2ccc(Cl)cc2c1=O | inconclusive: 23.1 µM [cytotoxic, single point] | – |
| COc1ccc(CNC(=O)COC(=O)CO/N=C(\C)c2ccc3c(c2)OCO3)cc1 | inconclusive: 20.6 µM [cytotoxic, single point] | – |
